Laboratory results from US20080300209.

Legend:
[1] = tested on: CREB/ATF (Homo sapiens); assay: competition with a labelled probe; conditions: competition ELISA vs 128 nM biotinylated SEQ 4; 2 uM competitor; protein in an extract
[2] = biological target: EGR1 (Homo sapiens) (UniProt P18146); assay: competition with a labelled probe; conditions: relative affinity as high as SEQ 41; protein in an extract
[3] = biological target: T1, NFATC1 (Homo sapiens) (UniProt O95644); assay: competition with a labelled probe; conditions: competition ELISA vs 128 nM biotinylated SEQ 15; 2 uM competitor; protein in an extract
T1 sequence (looked up, limits assumed): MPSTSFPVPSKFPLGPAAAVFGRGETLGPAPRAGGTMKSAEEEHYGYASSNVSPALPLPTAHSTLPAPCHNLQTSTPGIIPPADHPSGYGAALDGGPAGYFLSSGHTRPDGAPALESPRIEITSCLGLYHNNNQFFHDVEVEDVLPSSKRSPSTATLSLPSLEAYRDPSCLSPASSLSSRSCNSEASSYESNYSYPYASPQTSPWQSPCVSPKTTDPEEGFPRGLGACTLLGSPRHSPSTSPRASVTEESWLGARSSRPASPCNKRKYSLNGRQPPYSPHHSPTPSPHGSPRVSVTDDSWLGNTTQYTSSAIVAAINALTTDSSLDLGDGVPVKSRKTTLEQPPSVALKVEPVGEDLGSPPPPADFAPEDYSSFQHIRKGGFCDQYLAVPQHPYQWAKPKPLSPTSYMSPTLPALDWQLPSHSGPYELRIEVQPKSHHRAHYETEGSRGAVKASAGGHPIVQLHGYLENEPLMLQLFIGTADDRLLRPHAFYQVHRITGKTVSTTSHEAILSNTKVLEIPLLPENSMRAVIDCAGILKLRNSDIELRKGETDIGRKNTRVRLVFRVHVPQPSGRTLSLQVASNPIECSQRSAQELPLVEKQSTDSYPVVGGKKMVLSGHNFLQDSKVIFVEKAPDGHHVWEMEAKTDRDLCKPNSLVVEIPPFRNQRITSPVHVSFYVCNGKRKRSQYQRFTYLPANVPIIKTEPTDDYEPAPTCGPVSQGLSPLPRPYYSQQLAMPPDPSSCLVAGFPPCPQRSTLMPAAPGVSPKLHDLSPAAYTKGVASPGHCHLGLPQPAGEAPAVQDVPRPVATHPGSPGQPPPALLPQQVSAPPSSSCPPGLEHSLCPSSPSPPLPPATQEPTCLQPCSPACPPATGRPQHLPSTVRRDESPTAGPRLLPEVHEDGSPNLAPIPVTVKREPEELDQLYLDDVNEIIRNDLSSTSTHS

[4] = biological target: EGR1 (endogenous, HL60 cells) (Homo sapiens) (UniProt P18146); assay: activity in cells; conditions: protein in cells
[5] = tested on: CREB/ATF (Homo sapiens); assay: binding assay; conditions: transcription factor ELISA, 128 nM probe; competed by 2 uM competitor; protein in an extract; label: biotin
[6] = biological target: RUNX1 (AML1) (UniProt Q01196); assay: binding assay; conditions: transcription factor ELISA, 128 nM probe; competed by 2 uM competitor; protein in an extract; label: biotin
[7] = biological target: WT1 (Homo sapiens) (UniProt P19544); assay: competition with a labelled probe; conditions: lack of affinity in competition ELISA, 512 nM competitor; protein in an extract
[8] = biological target: SP1 (Homo sapiens) (UniProt P08047); assay: competition with a labelled probe; conditions: does not bind efficiently even at high excess (e.g. 512 nM competitor); protein in an extract
[9] = biological target: WT1 (Homo sapiens) (UniProt P19544); assay: binding assay; conditions: transcription factor ELISA, 128 nM probe; bound poorly compared with hEGR1; protein in an extract; label: biotin (probe), unlabelled as competitor
[10] = biological target: EGR1 (Homo sapiens) (UniProt P18146); assay: binding assay; conditions: transcription factor ELISA, protein in an extract
[11] = biological target: SP1 (Homo sapiens) (UniProt P08047); assay: binding assay; conditions: transcription factor ELISA, 128 nM probe; competed by 2 uM competitor; protein in an extract; label: biotin
[12] = biological target: T1, NFATC1 (Homo sapiens); assay: binding assay; conditions: transcription factor ELISA, 128 nM probe; competed by 2 uM competitor; protein in an extract; label: biotin

“GATGCGTGGGCGTTGACGTGGAAAATGC (double strand) [SEQ ID NO 45 composite EGR1/CREB/NFAT decoy]”: binds [1]; binds [2]; binds [3]. For the same sequence, the “activity on this sequence” value ([4]; CDK5R1 inhibition in HL60 cells, dose-response overlapping SEQ 41) was “active”.
“GCCTCCCTGAGCTCATTGACGTATCTCGG (double strand) [SEQ ID NO 4 CREB/ATF decoy]”: binds [5].
“GGCAATGTGGTTTTAGTGTGGTTTTACGG (double strand) [SEQ ID NO 12 RUNX1 decoy]”: binds [6].
“GTATGCGTGGGCGGTGGGCGTAG (double strand) [SEQ ID NO 42 fused EGR1 sites decoy]”: no binding [7]; no binding [8].
“GTTATGCGTGGGCGTAGATGCGGGGGCGTTATAG (double strand) [SEQ ID NO 40 double EGR1 site decoy]”: binds more weakly [9]; binds ([10]; streptavidin capture, 5, 10 or 15 ug nuclear extract, label: biotin (probe), unlabelled as competitor).
With “GTTATGCGTTTGTAGATGCTTTCGTTATAG / CTATTTCGAAACGATCTACATTGGCATAAC [SEQ ID NO 43/46 mismatched mutated control]” the binding result ([10]; lack of EGR1 binding, label: biotin, variant of SEQ ID NO 40 double EGR1 site decoy) was “no binding” and the “activity on this sequence” value ([4]; no inhibition of CDK5R1 expression in HL60 cells, variant of SEQ ID NO 40 double EGR1 site decoy) was “not active”.
“GTTATGGCGGGGCGGGGCGGGGCCGGGCGGTTTAC (double strand) [SEQ ID NO 11 SP1 decoy]”: binds [11].
“GTTCTTGGAAAATAAATGGAAAATAGTGGAAAATAAGTCG (double strand) [SEQ ID NO 15 NFAT decoy]”: binds [12].

For some assays here: At least one result comes from cells or an extract, where the contact may be indirect. For some assays here: A negative result means that nothing was seen under these conditions. For some assays here: The comparison behind a weaker result is the experiment's own reference, which may not be listed here. For some assays here: Tags and fusion partners may be left off the protein sequences shown. For some assays here: Construct, isoform or probe ends are uncertain for at least one entry.
